First the molecules themselves.
B1: KIF9 (protein, UniProt Q9WV04 1-790)
chain: MGTRKKVQAFVRVRPTDDFAHEMIKYGEDNKSIDIHLKKDTRRGVVNNQQTDWSFKLDGVLHNASQDLVYETVAKDAVSQALDGYNGTIMCYGQTGAGKTYTMTGATENYKHRGILPRALQQVFRMIEERPTHAITVRVSYLEIYNENLFDLLSTLPYVGPSVTPMTIVENPQGIFIKGLSVHLTSQEEDAFSLLFEGETNRIIASHTMNKNSSRSHCIFTIYMEAHSRTLSDEKYITSKINLVDLAGSERLSKTGSEGRVLKEATYINKSLSFLEQAIIALGDQNRDHVPFRQSKLTHALKDSLGGNCNMVLVTNIYGEAAQLDETLSSLRFASRMKLVTTEPAINEKYDAERMVKNLEKELALLKQELAIHDSLSNRTLVNYDPMDEIQIAEINSQVRRYLEGTLDEIDIINLRQIQEVFNQFRVVLSQQEQEVESALRRKYTLIDKNDFAAISAVQKVGLMDIEGNLVGEPDGQSFGLGVAPFSVKPGKKPKTKKTPKDQFSSSARKEGASSPVSGKDFDVASISKTQLIPSSKDGDLKDMLARERETSSIEPLISDSPKEELRAPRPSTPPSRTVAFEEFKNERGSEINRIFKENKSILNERKKRASETTQRINAIKQEIDETKDALNFQKSLREKQGEYENKGLMIIDEEEFLLILKLKDLKKQYRNEYQELRDLRAEIQYCQRLVDQCRHRLLMEFDIWYNESFMIPEDVQVALKLGSSIRPGMVPISRIVCLGEDDQDRFSHLQQTVLPEGLDSITFYNAKVKTDQKHNYMKTMVGLQQSHRK
B2: CFAP69 (protein, UniProt Q8BH53 1-942)
chain: MSTAEASATTADAAEAGGRTKTGSPRTIPVFGVAIPDGEMQGIFKPMDLNRIIKVLEEEDKDVSEEKQLNYIKKLIHCYQNGFPLRDLAQIFKILSLCAEKIEKQPCFVEPASDIIKLCGLPFLKKKVSDEITYTEDTANSFALLGELMKIPSSALRIQICKCIVDFYHAEPLKKHIPGYQQVSSSYKIKMVEVGGLAKAMVQSALLLENQLVEKLWVLKVLQHLSTSGVNCTLMVKAQAASGICAHLNDPDPSGQLLFRSSEVLWNLLEKSSKEEIIQQLSNLECLLALKEVFKNLFVRGHSHYERQLRNDILVITTIIAQNPGAPMIECGFTRDLILFATFNEVKSQNPLVKSLKLFNCYEDFELKKLLFNIIVILCKDLATVQLLIDGKVILALFTYVKKPERLKIMEWSAAQYEELQLHAIATLSSVAPLLIEEYMSCHGNSRILAFLEWCGHEDSYFIHGNSFHGTGGRGNKFAQMRYTLRLLRAMVYLEDETVNKDLCERGVIHQLIEIFKTMMSRPAEKEEAIALEIQSDTLLILSGLCENYIQRKEMFGTEGVDIVLHVMKTDPKNLQRGLGYNVLLFSTLDSIWCCILGCYDSEDYFLEKEGIFLLLDILALNQKKFCNLILGIMVEFCDNPKTSAHVNAWRGKKDLTAASLLIKLWRKEEKELGVKRDRNGKIVDTKRPLFTSFQEEQKTMPLPANCPSIAVMDVAENIRAKIYAVLDKLDFENLPGLSAEDFVTLCIIHRYFDFKIGEIWNEVSEEIKLEKLRLVTTDEKSLNSIIAATENIGKMVASLQSEMIENQALQDVQNEQRVYAKIQATHKQREQANKSWENFLARTSNAKTLKKAKKLQEKAIESSRYTERPQNATFHQTVIKGLNTTVPSGRVVTVQSTPTRLLGGPLADTDIALKKLPIRGGALQRVKVKPPLNDPKKSIPT
B3: ENO4 (protein, UniProt Q8C042 1-619)
chain: MGDEDGGRRGGITRDLQKLKQQAMAYYQENDVPRKLEDLLNSTFYLQPADVYGHLKANYFSKLAKPPSICKIVGKTILDGLGLPTLQVEISCTIQNFPKYICAVAIPTHFEVVENALPEALDAEDSERAQAVNTAVQWINQSITEELWGLVPSNQAEVDHRLRTFFEHKVQEDKERKELEKSQEELVPAPPPVTLPPPPPPPPPPPSKKKGQKAGRRDTLLEKPVSPPEPPEPVLHGSMAIGAVSLAVAKASATLASDPLYLTLASLKHDQEQPSTFSMPLLMGSVLSCGKSSPGKLHLMKEVICIPSPGLTAKQSVELLLEIQKQVNRAMETLPPPKQETKKGHNGSKRAQPPITGKVSHLGCLTINYDAIEQPLLLLQGICSNLGLELGVNFHLAINCAGHELMDYSKGKYEVMVGTHKSAAEMVELYVDLINKYPSIIALIDPFRKEDAEQWDSLYAALASRCYLIAGAASGSVSKLLECRNISTLKSHGLIIKHTNQTTMSDLVEITHLINGKKLLAVFGSTDSESSDDSLVDLAVGFGARFIKLGGLSRGERMTKYNRLLAIEEELIQRGVWGFSEEHNFSFFQEDATATMAEETLGLLDSIFPTEVIEESAKT
B4: MYCBPAP (protein, UniProt Q5SUV2 1-932)
chain: MMKKITERQSPLKLLEKKRAKAPEQPTPPIQEEPEPVSNVLQGDDILALAIKKEDLRKQHVPQFEETGEKPVVTQKFIIRKLKPKDSSKRVYHLVAHPATPDAATKPLDYSGPHDSFLSSGQILPHQILGSLQDFKRIAVARGNTQLAKLIHIQPCLMTLISAKEEPKPKPPKEEERPSPWAPPPQHNFLKNWRRHIALRKKQQEALSKHLKKPASELLMHTGESYRKIQEEREVIDRALPTQHDGKATSWFWSPLEYLGDEMTGLLMTKKKTQRGLVEPITHIRKPLSIQVETGLPAQKDAWYRYTWDRSLFLIYRRKELQSIMAELDFSQQDIDGLEVVGHGKPFSSVTVEEHLPPEKIQKSSSEDTVFLDSLTNLSDMVPMPILGPSLLFCGKPACWVRGSNPEDKKNIGIGVRLTFETLEGERTSSELTVVNNGTVAIWYNWRRRPHQDFFQDLKQNKTQRFYFNNREGVILPGETKHFTFFFKSLNAGIFRESWEFGTHPTLLGGAVLQVTLHAISLTQDIFMDERKLLETKLAAHEAITIAQSVLQDLLRGISTPERTPSPVDAYLTEEDLFNYRNPRLHYQHQVVQNLHQLWQQYRKAKATQKETPSLRTPVPLLLVEKASGSISPRNLVSEYSQLSPHQEMDTARKTRDFFLSLKSSIGKKSVARKSIMEELLVEEGPDRETTQRPWALKSISPPKWNLCLEDFRQAVMTFPEELQREDALIQLNKAAMELCQEQKPLQSDLLYQMCLQLWRDVIDSLVSQSLWLRNLLGLPEKETVYLDLPDEQGQKSPPVTESKVTSGKAGKEDRRGGAQEKKQLGTKDKDDKRGSKTPGKEDRPNSKKLKPKDDKKVVKSASRDRLLSEDPPPDSTAPSQEPIDPLVMEKYTQRLHAEVYALLDNLVTDVMVLADELSSTKNVEESLRFCS
B5: CFAP73 (protein, UniProt J3QPZ5 1-306)
chain: MAVTWEEYFRLVFSEKVQPKPLEQTGDDSSVLQLILEKKEELAVADLGLQAQKKEYRSTIESVNQRWRELEQKGQELQGSVISYDKFLKEVEARRAARKAIEERKITGNLDAELRRLRTQLKELRLQRARLQRKVQRLEPCARILKRALEKRPVFEEVSDLVARFETLVSTKAALKLEEQKRLVEMESTRAQLLSLQSEKQDEMLNLNQQRTQLVEQLEAAREHRQQWESKWTEILNSASEKTLLLGRARMAVLNLYHLVRLQQGRRQTLDVRDVEGQLEEVKRFIMNISATLAKLALAQPTATAS
B6: EFHC2 (protein, UniProt Q9D485 1-750)
chain: MALPFLPGNSFNRNIGKERFHKSQHWGFCNNVRMLVSENKPGVGGDLLYGQKIKPKHSVFPKGDGTDAPSWVAFDKQVLSFDAYLEDEISDKRQEIFRIRYYKIYFYLEDDTIQVNEPEVINSGLPQGTSIRRQRIPYPPPNDDQFYTVYDFNINISVVFYGRTFKIYDCDPFTKNFLKKIGIKLNPPGQCPLDPYMKMRRETLEFVDPFRPYQSFDTLKRFIQYDGKVLRFFCLWDDSTSLFGDRREFVLHYFLCDGTVEIREVLPSNSGRDAMSSFLRRGKLPKYGPPGIYQPGQITDRAVLNVYGGLSEWRADGYLLDKYQLGKVEQDFYTDQDLSIGATINVWGRKVLLCDCDEFTKTYYRTKYGVDNFTPISCKPPHLPKIERKYPPYTGFGSEEDSFRSCVGLKPTPHRKNFKKFMELDSFGNISNILRYFGKLITHKCADVDRIFVIAFYLSDDTISVFEPIENNSGNAGGMFLKRSRVKKPGQEVFKSEFSEYIKAEELYIGATVNINGYLFILLNADEYTLNYMENNTDKFPYSNFELAIQKLKQEKSKSREITQVFAAADYNHTKVVPYNTFRDILMSITMGKLIDQELITIARHYRVPEIMDPDLAYLIARAHEKFKKNIFENFDMFIYNCVYEDREKKGVLPTKDIRRMCKSSRLPLDDDFLDCLLSRFEDKDHQINYEIFFSVLNWRMNPTPDLQAPPYLKEKCEDVWVGMPSPIPVKYVRYLDFLIDVYGLEDNML
B7: SPAG16 (protein, UniProt Q8K450 1-639)
chain: MAAPSGVPPLRVLEELGIGLSPTGEVTEAVTSEGAYYLEQVTITETSEDECEYEEIPDDNFSIPEGEEDLEKAIHIIGEQARDIHILEQQTILPARNVMQEAIEDFLCNFLIKMGMTRTLDCFQAEWYELIQKKGSDFKGLGNVPDVYSQVMLLETENKNLKKELKHFKQAAEKAKEDLLRTQKERDFHRMHHKRIVQEKNKLIADLKGLKLHYASYEPTIRVLHEKHHALLKEKMLTSLERDRAVGKISGLQATLKNIDMGHIQVPVIKGSYESASITRESGDRAGHSCEKENSSEGPTQKSLREAREEVGYKSKLKNEKKDSEFPVDMQPDPNVTSCTENVSAAKFDYKLNNIFRLHELPVSCIVMHPCRDYLISCSEDRLWKMVGLPQGNVLLTGSGHTDWLSGCCFHPSGSKLATSSGDSTIKLWDLNKGECTLTLEGHNHAVWSCTWHSCGDFVASASLDMTSKIWDVNSERCRYTLYGHTDSVNSIEFFPFSNILLTASADKTLSVWDARTGKCEQSLYGHMHSVNDATFTPRGHIIASCDARGVTKLWDFRKLIPIVSIDVGPSSGNEVNFDQSGRVLAQASANGIIHLLDLKSGQIHKLVGHESEVHSVVFSHLGENLYSGGSDGTIRLWI
B8: LRGUK (protein, UniProt Q9D5S7 1-820)
chain: MAAFERNPSRWKGTRFRRGLGASRIAAQAILSLTEKQSQGRWPSFPLGLKSKGTFRSASSYLLHQLIHRSHEAEAEQEEKQQEDGESEESEESEMQNLEDKYDGILREETVAEAITGLGWSGRGTEQVYLNLNLSHCELVDISILCGYVHLQKLNLSGNRIEDLSCVSCMPYLLELNASQNKLTTFFNFKPPQNLKKVDFSSNLISEMYDLSAYHTLTQLILDNNEIEEITGLENCISLTHLSLAGNKITTIKGLGTLPIKVLSLSNNMIETITGLEELKALQNLDLSHNQISSLQGLENHDLLEVINLEDNKIKELSEIEYIENLPILRVLNLLRNPIQTKPEYWFFVIYMLLRLTELDQQKIKVEEKVFAVNKYDPPPEVVAVQDHMTHVVNSMSQPQRIWDSTLPSLDAPYPMLILTGPAACGKRELAHRLCRQFSTYFRYGACHTTRPPYFGEGDRVDYHFISQEVFDEMLNMGKFILTFNYGNHNYGLNRDTIEGIARDGLASCIHMELEGVRSLKYSYFEPRYILVVPMDKEKYEGYLRRKGLFSRAEIEIAVSRVDLYVKVNQKYPGYFDAVINADDMDIAYQKLSELIREYLGLTETAAKTLAPTADTKTSYLKCEDYSRKSSTVEFLDSTDRNYFTKLWAKLSSKKSPVERESLHRQHEAARQALMGKTPRDHTLLFQRGPVPIPTVSGQQYFATIDELQKTFELSDDLFKTPSGTYPETSKDSNISKRYSTYFHTCPWSKELPFQLPEGGISSRPGSAGSDEVDGALKALRVASSMQEKVAQHKRLSAITIMDPGSNTKPTLPPIPHGRR

Sequences of proteins named here, by UniProt entry; tags and fusion partners are left off.
UniProt Q8CGF6: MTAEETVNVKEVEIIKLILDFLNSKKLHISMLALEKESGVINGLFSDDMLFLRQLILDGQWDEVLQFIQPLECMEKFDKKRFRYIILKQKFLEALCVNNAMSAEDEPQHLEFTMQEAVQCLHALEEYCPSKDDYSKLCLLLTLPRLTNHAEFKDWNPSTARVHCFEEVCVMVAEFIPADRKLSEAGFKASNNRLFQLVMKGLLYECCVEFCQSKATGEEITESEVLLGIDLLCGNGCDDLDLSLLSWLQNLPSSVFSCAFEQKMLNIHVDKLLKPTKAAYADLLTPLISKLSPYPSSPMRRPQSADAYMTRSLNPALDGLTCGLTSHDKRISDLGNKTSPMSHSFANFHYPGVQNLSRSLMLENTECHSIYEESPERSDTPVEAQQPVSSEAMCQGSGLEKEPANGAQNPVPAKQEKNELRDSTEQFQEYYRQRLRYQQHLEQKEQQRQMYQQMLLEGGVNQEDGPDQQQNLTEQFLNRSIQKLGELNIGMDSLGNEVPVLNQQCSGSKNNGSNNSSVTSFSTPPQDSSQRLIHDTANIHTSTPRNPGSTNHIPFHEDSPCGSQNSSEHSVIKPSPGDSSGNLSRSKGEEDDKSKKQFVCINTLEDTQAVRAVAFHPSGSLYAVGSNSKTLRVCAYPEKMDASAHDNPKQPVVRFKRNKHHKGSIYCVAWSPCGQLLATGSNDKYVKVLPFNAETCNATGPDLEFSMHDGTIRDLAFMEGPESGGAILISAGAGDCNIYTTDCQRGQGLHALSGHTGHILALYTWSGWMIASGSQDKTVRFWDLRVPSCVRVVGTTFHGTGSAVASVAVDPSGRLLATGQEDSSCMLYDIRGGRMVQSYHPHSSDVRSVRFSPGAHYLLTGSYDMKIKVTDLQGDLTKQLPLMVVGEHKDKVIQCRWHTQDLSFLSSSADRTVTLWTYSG

No constants are given. Whether binding was seen depends on the method and setting. In cells and extracts the contact can be indirect. A yes stands for co-enrichment or nearness to the bait. Other partners may have been found. Tags and fused reporters may be left off the sequences shown.

The test deals with APEX2-WDR47 (mouse) (UniProt Q8CGF6). Description: proximity labelling; APEX2-WDR47 expressed in mEPCs by adenovirus; 500 uM biotin-phenol at 37 C for 30 min, 1 mM H2O2 for 1 min; lysis in RIPA buffer, biotinylated proteins on streptavidin-conjugated agarose beads, shotgun mass spectrometry; cutoff >= twofold peptide ratio against the mock-treated control.
As for B1, the binding entry was “binds”.

In the case of B2, the binding entry is on record as “binds”.

In the case of B3, the binding entry was “binds”.

Take B4: the binding result is “binds”.

In the case of B5, the binding result is recorded as “binds”.

For the molecule B6, the binding entry is “binds”.

As for B7, the binding entry is listed as “binds”.

For the molecule B8, the binding result was “binds”.
